PubChem BioAssay AID686938 – Drosophila RNAi Screening Center, 2013
Aim: 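Looking for CRAC channel components and the factors controlling them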 (primary screen). Cell system: Drosophila S2R+ cells. Knock-down reagent: long dsRNA against Drosophila genes, about 0.25 µg dsRNA per well, roughly 10,000 cells. Duration: 5 days of knock-down before the calcium assay. Challenge: thapsigargin (SERCA pump blocker) to empty calcium stores; entry signal taken 4 min after adding it. Read-out: 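Duplicate raw fluo-4 intensities per well from a plate reader, at rest and four minutes after thapsigargin emptied calcium stores; entry-to-rest ratio filled for only some wells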. Scale: calcium entry signal: higher = stronger calcium signal after store depletion; entry to resting ratio: higher = more calcium entry relative to resting level; resting calcium signal: higher = higher resting calcium signal. Call rule: 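Hit if the duplicate-averaged plate z-score for entry over resting signal is under −3; wells with weak total dye signal (Fmax z < −2) or more than 5 off-targets removed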. Calls: active = strongly reduced calcium entry; inactive = no strong reduction.
The deposit covers about 23,000 reagents; below is an unselected part of those with a known target gene and a result. Of all reagents, 75 (0.33%) were called active. 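Raw plate signals without normalisation; calls rest on plate z-scores that were not deposited; ratio present for only 364 wells.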 Reagents against one gene are numbered here. The record does not give: the dose of the treatment.

Gene | reagent | calcium entry signal, replicate 1 (fluorescence units) | calcium entry signal, replicate 2 (fluorescence units) | entry to resting ratio | resting calcium signal, replicate 1 (fluorescence units) | resting calcium signal, replicate 2 (fluorescence units) | outcome
CG4676 | 1 | 2.94e7 | 2.70e7 | – | 1.52e7 | 1.22e7 | inactive
CG16898 | 1 | 5.93e7 | 5.48e7 | – | 2.45e7 | 2.64e7 | inactive
CG12402 | 1 | 3.75e7 | 4.85e7 | – | 1.81e7 | 6.00e7 | inactive
CG15772 | 1 | 2.97e7 | 4.34e7 | – | 1.47e7 | 1.89e7 | inactive
Tsp3A (Tetraspanin 3A) | 1 | 5.61e7 | 4.99e7 | 2 | 2.82e7 | 2.12e7 | inactive
ssh (slingshot) | 1 | 4.39e7 | 3.60e7 | – | 2.27e7 | 1.73e7 | inactive
maca | 1 | 1.98e7 | 5.36e7 | – | 1.13e7 | 8.25e7 | inactive
CG13311 | 1 | 3.45e7 | 5.15e7 | – | 1.58e7 | 2.15e7 | inactive
CG32756 | 1 | 4.29e7 | 3.42e7 | – | 2.36e7 | 1.41e7 | inactive
CG32756 | 2 | 4.86e7 | 3.57e7 | – | 2.51e7 | 1.48e7 | inactive
fz4 (frizzled 4) | 1 | 3.52e7 | 4.66e7 | – | 1.64e7 | 2.12e7 | inactive
CG4983 | 1 | 4.67e7 | – | – | 2.15e7 | – | inactive
Gpo2 (Glycerophosphate oxidase 2) | 1 | 5.90e7 | 4.68e7 | – | 2.53e7 | 1.71e7 | inactive
Sh (Shaker) | 1 | 2.21e7 | 2.69e7 | – | 1.52e7 | 1.58e7 | inactive
Sh (Shaker) | 2 | 2.73e7 | 2.50e7 | – | 1.44e7 | 1.28e7 | inactive
Sh (Shaker) | 3 | 4.16e7 | 3.50e7 | – | 2.03e7 | 1.32e7 | inactive
Sh (Shaker) | 4 | 3.12e7 | 2.91e7 | – | 1.69e7 | 1.38e7 | inactive
Sh (Shaker) | 5 | 4.26e7 | 3.52e7 | – | 2.12e7 | 1.52e7 | inactive
yellow-h | 1 | 3.74e7 | 5.25e7 | 2.1 | 1.77e7 | 2.02e7 | inactive
mkg-p (monkey king protein) | 1 | 4.42e7 | 3.48e7 | – | 2.99e7 | 1.48e7 | inactive
cid (centromere identifier) | 1 | 4.47e7 | 3.84e7 | – | 2.17e7 | 2.02e7 | inactive
cid (centromere identifier) | 2 | 3.35e7 | 4.04e7 | – | 1.72e7 | 1.91e7 | inactive
Cnep1r1 (CTD nuclear envelope phosphatase 1 regulatory subunit 1) | 1 | 4.75e7 | 3.67e7 | – | 2.23e7 | 1.61e7 | inactive
mRpL15 (mitochondrial ribosomal protein L15) | 1 | 4.14e7 | 5.26e7 | – | 1.82e7 | 3.30e7 | inactive
tral (trailer hitch) | 1 | 5.14e7 | 4.27e7 | – | 3.57e7 | 2.02e7 | inactive
CG6628 | 1 | 3.05e7 | 3.58e7 | – | 1.67e7 | 1.77e7 | inactive
Rcd1 (Reduction in Cnn dots 1) | 1 | 3.79e7 | 3.41e7 | – | 2.11e7 | 1.89e7 | inactive
CG4653 | 1 | 2.34e7 | 4.37e7 | – | 1.15e7 | 2.04e7 | inactive
CG4653 | 2 | 2.84e7 | 3.18e7 | – | 1.32e7 | 1.48e7 | inactive
brv3 (brivido-3) | 1 | 4.83e7 | 4.67e7 | 2 | 2.40e7 | 1.94e7 | inactive
Ir75b (Ionotropic receptor 75b) | 1 | 3.96e7 | 4.96e7 | – | 1.92e7 | 2.20e7 | inactive
CG3473 | 1 | 4.67e7 | 3.03e7 | – | 1.99e7 | 1.42e7 | inactive
Peritrophin-A (Peritrophin A) | 1 | 2.95e7 | 3.48e7 | – | 1.38e7 | 1.56e7 | inactive
RacGAP84C (Rac GTPase activating protein at 84C) | 1 | 4.39e7 | 3.59e7 | – | 2.12e7 | 1.73e7 | inactive
Golgin84 (Golgin-84) | 1 | 3.74e7 | 5.50e7 | – | 1.96e7 | 2.06e7 | inactive
CG2129 | 1 | 2.63e7 | 2.42e7 | – | 1.14e7 | 1.08e7 | inactive
dpr8 (defective proboscis extension response 8) | 1 | 3.08e7 | 3.72e7 | – | 1.64e7 | 1.68e7 | inactive
dpr8 (defective proboscis extension response 8) | 2 | 3.33e7 | 3.48e7 | – | 1.77e7 | 1.69e7 | inactive
dpr8 (defective proboscis extension response 8) | 3 | 2.80e7 | 3.08e7 | – | 1.53e7 | 1.48e7 | inactive
dpr8 (defective proboscis extension response 8) | 4 | 2.88e7 | 3.40e7 | – | 1.50e7 | 1.42e7 | inactive
Syt14 (Synaptotagmin 14) | 1 | 3.50e7 | 5.65e7 | – | 1.71e7 | 2.30e7 | inactive
CG14841 | 1 | 2.29e7 | 4.86e7 | – | 1.22e7 | 7.53e7 | inactive
CG6870 | 1 | 4.82e7 | 3.35e7 | – | 2.10e7 | 1.53e7 | inactive
sstn (stepping stone) | 1 | 5.49e7 | 6.65e7 | – | 2.53e7 | 2.39e7 | inactive
CG7453 | 1 | 4.86e7 | 4.02e7 | – | 2.24e7 | 1.74e7 | inactive
Or1a (Odorant receptor 1a) | 1 | 4.46e7 | 5.37e7 | 2.1 | 2.14e7 | 2.08e7 | inactive
CG6424 | 1 | 2.77e7 | 2.54e7 | – | 1.43e7 | 1.26e7 | inactive
Glg1 (Golgi complex-localized glycoprotein 1) | 1 | 2.95e7 | 3.96e7 | – | 1.31e7 | 2.57e7 | inactive
Glg1 (Golgi complex-localized glycoprotein 1) | 2 | 2.69e7 | 5.36e7 | – | 1.36e7 | 2.04e7 | inactive
Glg1 (Golgi complex-localized glycoprotein 1) | 3 | 2.56e7 | 3.41e7 | – | 1.26e7 | 1.48e7 | inactive
Brd8 (Bromodomain containing 8) | 1 | 2.77e7 | 3.19e7 | – | 1.45e7 | 1.64e7 | inactive
CG3123 | 1 | 3.64e7 | 4.07e7 | – | 1.71e7 | 1.75e7 | inactive
CG3847 | 1 | 2.70e7 | 4.47e7 | – | 1.29e7 | 2.18e7 | inactive
CG3847 | 2 | 3.71e7 | 3.69e7 | – | 2.32e7 | 2.10e7 | inactive
Pka-R2 (Protein kinase, cAMP-dependent, regulatory subunit type 2) | 1 | 2.59e7 | 2.57e7 | – | 1.22e7 | 1.08e7 | inactive
CG7573 | 1 | 2.84e7 | 4.92e7 | – | 1.50e7 | 2.18e7 | inactive
CG31957 | 1 | 2.33e7 | 3.43e7 | – | 1.32e7 | 1.60e7 | inactive
CG17290 | 1 | 3.80e7 | 3.91e7 | – | 1.76e7 | 1.63e7 | inactive

7 entries already listed, sorted by “calcium entry signal, replicate 1 (fluorescence units)”, lowest first:
Gene | reagent | calcium entry signal, replicate 1 (fluorescence units) | calcium entry signal, replicate 2 (fluorescence units) | entry to resting ratio | resting calcium signal, replicate 1 (fluorescence units) | resting calcium signal, replicate 2 (fluorescence units) | outcome
CG31957 | 1 | 2.33e7 | 3.43e7 | – | 1.32e7 | 1.60e7 | inactive
Pka-R2 (Protein kinase, cAMP-dependent, regulatory subunit type 2) | 1 | 2.59e7 | 2.57e7 | – | 1.22e7 | 1.08e7 | inactive
CG3847 | 1 | 2.70e7 | 4.47e7 | – | 1.29e7 | 2.18e7 | inactive
Brd8 (Bromodomain containing 8) | 1 | 2.77e7 | 3.19e7 | – | 1.45e7 | 1.64e7 | inactive
CG7573 | 1 | 2.84e7 | 4.92e7 | – | 1.50e7 | 2.18e7 | inactive
CG3123 | 1 | 3.64e7 | 4.07e7 | – | 1.71e7 | 1.75e7 | inactive
CG3847 | 2 | 3.71e7 | 3.69e7 | – | 2.32e7 | 2.10e7 | inactive
